Experimental data reported in patent publication US11041000B2 (priority 2019, dated 2021).

Experiment: general procedure: Fmoc solid-phase peptide synthesis; Rink Amide MBHA resin (100-200 mesh, 0.57 or 0.66 mmol/g) for C-terminal amides; pre-loaded Wang resin for C-terminal ac; HBTU/DIEA (PyAOP/DIEA for some couplings); Oxyma/DIC
Details: whole synthesis, Analytical RP-HPLC (Gemini C18)

Substance	final HPLC purity (acetate)	final HPLC purity (acetate salt)
Ac-[Pen]-NT-[W(7-Me)]-[Lys(Ac)]-[Pen]-Phe[4-(2-aminoethoxy)]-[2-Nal]-[a-MeLys]-[Lys(Ac)]-N-[(D)Leu]-NH2	97%	
Ac-[Pen]-NT-[W(7-Me)]-[Lys(Ac)]-[Pen]-Phe[4-(2-aminoethoxy)]-[2-Nal]-[a-MeLys]-[Lys(Ac)]-N-[(D)Lys]-NH2		97%
Ac-[Pen]-NT-[W(7-Me)]-[Lys(Ac)]-[Pen]-Phe[4-(2-aminoethoxy)]-[2-Nal]-[a-MeLys]-[Lys(Ac)]-N—H—NH2	>97%	
Ac-[Per]-NT-[W(7-Me)]-[Cit]-[Per]-Phe[4-(2-aminoethoxy)]-[2-Nal]-[a-MeLys]-[Lys(Ac)]-[N-MeAla]-NH2	>97%	
